{
  "sequences": {"note": "The chains behind the UniProt entries cited, without tags or fusion partners. Where a name states a change or a piece, a line headed by the entry shows the natural chain unless it says otherwise.", "UniProt Q96E93": "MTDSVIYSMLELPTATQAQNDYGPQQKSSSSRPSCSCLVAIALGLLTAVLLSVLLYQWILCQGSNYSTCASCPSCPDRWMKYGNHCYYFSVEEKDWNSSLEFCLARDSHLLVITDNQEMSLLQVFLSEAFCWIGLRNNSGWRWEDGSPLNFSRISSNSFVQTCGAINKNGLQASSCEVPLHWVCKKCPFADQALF"},
  "source": "patent US20240174754A1",
  "binders": {"B1": {"name": "PA015 (antibody, human IgG1, kappa, V domains shown)", "VH": "QVTLRESGPALVKPTQTLTLTCTVSGFSLSTFGMGVGWIRQPPGKALEWLAHIWWDDDKWYELALKSRLTISKDTSKNQVVLTITNMDPVDTATYYCARVIYYGSRSAYYSMDYWGQGTTVTVSS", "VL": "DVVMTQTPLSLSVTPGQPASISCKSSQSIVHSNAHTYLEWYLQKPGQSPQLLIYKVSNRFSGVPDRFSGSGSGTDFTLKISRVEAEDVGVYYCFQGSHVPVTFGQGTKLEIKR"}},
  "target": "full length human KLRG1 expressed on CHOK1 cells (CHOK1-hKLRG1) (human) (UniProt Q96E93)",
  "test": "FACS on CHOK1-hKLRG1 cells (FIG. 1 legend)",
  "note": "These are yes or no findings as the source states them, for the method shown. Binding calls can cover weak binding; strength is not graded here.",
  "data": [
    {"binder": "B1", "values": [
      {"measurement": "binding", "value": "binds"}
    ]}
  ]
}
